Results: paper PMC9223397 (International Journal of Molecular Sciences, 2022)

System: SMI-32-positive MNs in spinal cord organotypic cultures
Assay: Spinal cord organotypic cultures (SCOC) under chronic excitotoxicity (THA)
Type: cell-based, Sprague–Dawley rats
Conditions: THA 100 µM, 28 DIV; 5 µM, positive control
Protocol: SCOCs from lumbar sections of 8-day-old Sprague–Dawley rats were prepared as previously described. Briefly, the spinal cord was collected and cut into 350 μm thick transverse sections with a McIlwain Tissue Chopper. Four lumbar sections were transferred onto Millicell-CM nets (0.4 μm, PICM03050, Millipore) in medium (50% (v/v) minimal essential medium (MEM, M5775, Sigma), 2 mM glutamine, 25 mM HEPES, 25% (v/v) Hank’s Balanced Salt Solution (HBSS^−/−;14175, Gibco; UK) supplemented with 25.6 mg/mL glucose, and 25% (v/v) heat-inactivated horse serum (26050-088, Gibco; New Zealand), pH = 7.2). Cultures were maintained at 37 °C in a 5% CO2 humidified cabin and left to stabilize. After 7 days in vitro (DIV), DL-threo-β-hydroxyaspartic acid (THA; 100 μM: H2775, Sigma Aldrich, St. Louis, MI, USA) was added to induce chronic excitotoxicity. The neuroprotective effect of each Sig-1R ligand was assessed by its coaddition to the culture with THA and renewing at each medium change. […] Comparisons were performed against slices with vehicle as negative control and with the addition of riluzole (5 μM) as positive control. […]
Slices were maintained for 28 DIV and then fixed with 4% PFA. […] MN survival was assessed by counting all SMI-32-positive neurons in each spinal cord using the Cell Counter plugin of ImageJ software.

Compound: Nc1nc2ccc(OC(F)(F)F)cc2s1 [Riluzole, reference compound]
- Number of SMI-32-positive MNs vs THA condition: preserved MNs at levels of control cultures
